These are yes or no findings as the source states them, for the method shown. Binding calls can cover weak binding; strength is not graded here.
Biological target: B11 target antigen on dendritic cells derived from cynomolgus macaques (cynomolgus macaque)
Test: flow cytometry, 10 µg/ml B11-FITC on cynomolgus dendritic cells

B1: human monoclonal antibody B11 (antibody, human IgG1, V domains shown)
VH: EVQLVQSGAEVKKPGESLRISCKGSGDSFTTYWIGWVRQMPGKGLEWMGIIYPGDSDTIYSPSFQGQVTISADKSISTAYLQWSSLKASDTAMYYCTRGDRGVDYWGQGTLVTVSS
VL: DIQMTQSPSSLSASVGDRVTITCRASQGISRWLAWYQQKPEKAPKSLIYAASSLQSGVPSRFSGSGSGTDFTLTISGLQPEDFATYYCQQYNSYPRTFGQGTKVEIK
notes: Human IgG1 kappa from a HuMAb mouse hybridoma; also called B11 HuMab; mAb B11
**Q.** For B1, which binding is on record?
**A.** The binding was “binds”.

— US20030031667A1 (CELLDEX RESEARCH, published 2003)
